# Source: PubChem BioAssay AID1259254 (NCATS, 2017)
# Screen: 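Genome-wide screen for genes that prevent DNA re-replication in cancer cells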 (primary screen)
# System: human HCT116 colorectal cancer cells
# Knock-down reagent: single siRNA against human genes
# Timing: 3 days
# Detection: 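Nuclei stained with Hoechst and imaged; cell-cycle phase assigned by DNA content; G2 share scaled per plate, non-targeting siRNA 0%, GMNN siRNA 100%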
# Reading the numbers: G2 robust z-score and G2 cells, % of GMNN control: higher = more G2 cells, more excess DNA replication; raw share of cells in G2: higher = larger share of cells with G2 DNA content
# Rule for the call: 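Active siRNAs have a G2 robust z of 5 or more median absolute deviations over the median, which in these data means about 38% or higher of GMNN control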
# Here is an unselected part of about 59,000 reagents. About 1,550 of them (2.6%) count as active. 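G2 share is only a proxy for re-replication; each gene was hit by three separate siRNAs, and active genes were retested.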 Raw values vary from plate to plate and are shown uncorrected. Reagents against one gene are numbered here. The record does not give: the amount of reagent.
G2 robust z-score,"G2 cells, % of GMNN control",raw share of cells in G2 (%),call,gene,reagent
-1.03,-4.29,2.68,inactive,NAA11 (GeneID 84779),1
0.0211,3.12,4.38,inactive,NAA11 (GeneID 84779),2
0.245,4.69,3.83,inactive,NAA11 (GeneID 84779),3
-1.14,-5.08,2.81,inactive,MAGEA12 (GeneID 4111),1
1.5,13.5,9.56,inactive,MAGEA12 (GeneID 4111),2
0.469,6.27,5.62,inactive,MAGEA12 (GeneID 4111),3
-1.23,-5.68,3.94,inactive,RAVER2 (GeneID 55225),1
2.11,17.8,10.8,inactive,RAVER2 (GeneID 55225),2
0.108,3.72,5.89,inactive,RAVER2 (GeneID 55225),3
-0.967,-3.84,3.41,inactive,CAV1 (GeneID 857),1
-0.866,-3.12,3.96,inactive,CAV1 (GeneID 857),2
-1.11,-4.85,2.18,inactive,CAV1 (GeneID 857),3
-0.128,2.07,5.32,inactive,DEPDC1 (GeneID 55635),1
4.07,31.6,17.2,inactive,DEPDC1 (GeneID 55635),2
1.02,10.2,6.38,inactive,DEPDC1 (GeneID 55635),3
-0.495,-0.518,4.9,inactive,TECTA (GeneID 7007),1
0.588,7.11,6.71,inactive,TECTA (GeneID 7007),2
1.09,10.7,7.12,inactive,TECTA (GeneID 7007),3
-0.121,2.11,4.5,inactive,OR4D9 (GeneID 390199),1
-0.763,-2.4,2.36,inactive,OR4D9 (GeneID 390199),2
-0.691,-1.9,3.82,inactive,OR4D9 (GeneID 390199),3
0.51,6.56,5.35,inactive,MB21D2 (GeneID 151963),1
-0.223,1.4,4.3,inactive,MB21D2 (GeneID 151963),2
0.558,6.89,5.04,inactive,MB21D2 (GeneID 151963),3
0.214,4.47,6.12,inactive,KCNG1 (GeneID 3755),1
-0.375,0.326,5.41,inactive,KCNG1 (GeneID 3755),2
0.461,6.21,6.88,inactive,KCNG1 (GeneID 3755),3
0.322,5.24,6.86,inactive,CRELD1 (GeneID 78987),1
-0.114,2.17,5.58,inactive,CRELD1 (GeneID 78987),2
0.199,4.37,3.85,inactive,CRELD1 (GeneID 78987),3
0.25,4.72,5.68,inactive,TSPAN14 (GeneID 81619),1
-0.793,-2.61,2.68,inactive,TSPAN14 (GeneID 81619),2
-1.22,-5.64,0.695,inactive,TSPAN14 (GeneID 81619),3
2.17,18.2,11.3,inactive,PANX1 (GeneID 24145),1
-0.649,-1.6,3.25,inactive,PANX1 (GeneID 24145),2
0.969,9.79,6.72,inactive,PANX1 (GeneID 24145),3
3.95,30.8,15.2,inactive,BMP4 (GeneID 652),1
-0.252,1.19,5.5,inactive,BMP4 (GeneID 652),2
-0.897,-3.34,2.75,inactive,BMP4 (GeneID 652),3
-0.604,-1.28,3.69,inactive,OR2B11 (GeneID 127623),1
0.664,7.64,5.53,inactive,OR2B11 (GeneID 127623),2
1.63,14.4,7.81,inactive,OR2B11 (GeneID 127623),3
-0.502,-0.562,4.78,inactive,S1PR4 (GeneID 8698),1
1.16,11.1,7.85,inactive,S1PR4 (GeneID 8698),2
-0.914,-3.46,3.36,inactive,S1PR4 (GeneID 8698),3
-0.813,-2.75,3.55,inactive,ZSCAN25 (GeneID 221785),1
-1.25,-5.82,3.18,inactive,ZSCAN25 (GeneID 221785),2
1.98,16.9,10.9,inactive,ZSCAN25 (GeneID 221785),3
-1.39,-6.83,1.7,inactive,HPX (GeneID 3263),1
4.31,33.3,18.4,inactive,HPX (GeneID 3263),2
0.297,5.06,6.88,inactive,HPX (GeneID 3263),3
-0.24,1.28,2.79,inactive,TMEM79 (GeneID 84283),1
-0.57,-1.04,3.76,inactive,TMEM79 (GeneID 84283),2
-1.08,-4.66,2.07,inactive,TMEM79 (GeneID 84283),3
6.48,48.6,24.2,active,GUCY2C (GeneID 2984),1
-0.59,-1.18,3.77,inactive,GUCY2C (GeneID 2984),2
0.593,7.14,7.64,inactive,GUCY2C (GeneID 2984),3
0.219,4.51,5.36,inactive,SEPTIN7P2 (GeneID 641977),1
-0.369,0.37,3.56,inactive,SEPTIN7P2 (GeneID 641977),2
-0.88,-3.23,2.02,inactive,SEPTIN7P2 (GeneID 641977),3
0.677,7.73,7.37,inactive,MSANTD3 (GeneID 91283),1
0.681,7.76,5.43,inactive,MSANTD3 (GeneID 91283),2
-0.724,-2.12,2.25,inactive,MSANTD3 (GeneID 91283),3
0.693,7.85,8.33,inactive,EAF1 (GeneID 85403),1
-1.08,-4.62,2.73,inactive,EAF1 (GeneID 85403),2
0.706,7.94,9.36,inactive,EAF1 (GeneID 85403),3
-0.278,1.01,4.18,inactive,MBNL1-AS1 (GeneID 401093),1
-0.919,-3.5,2.13,inactive,MBNL1-AS1 (GeneID 401093),2
-1.14,-5.04,2.7,inactive,MBNL1-AS1 (GeneID 401093),3
